Results from article PMC10163288.
The other results are listed elsewhere or left out.

B1: il2ra_site2_3nfp_normal_mot_b82ca2e1c409d160386ac3cc6d7ba40c_0001_000000212_0001_53_65_H_._3fb99943767767075383c8503bf007d5_0001_af2_0001_0000200020_0000001_0 (protein)
chain: DQEHEDAIKTAVESGNPNLLRLVEAALLALKLHGDPLFEELLELIEELVEEGNPIAEELLRRIEP
B2: il2ra_site1_3nfp_normal_mot_HHH_b1_08149_af2_000000062_0001_43_57_H_._97e99672e168623ff83a69b38e8865de_0001_1_0001_0000300024_0000001_0_af2pred_0001_af2pred_1 (protein)
chain: TAEELLEELVRIAVENNNPRLLRKILRALEAYLGDPEEAERKLEELIEKVLGDPEEAEELVRLAK
B3: il2ra_site1_1z92_sap_22_mot_HHH_b1_08467_af2_000000139_0001_42_58_H_._HHH_b2_01290_af2_0001_0000300012_0000001_0_0001_af2pred_0001_af2pred_1_swapped (protein)
chain: NLTAQDLEEAVEKNDEELLRKFIELLLRAAGDPHFVKRLLEALVKKLGLPPEVLERLRELLEELT
B4: il2ra_site1_2b5i_sap_16_mot_0d834090f7fba59af90d965c6e866d42_0001_1_000000125_0001_35_49_H_._HHH_b2_04217_af2_0001_0000100006_0000001_0_0001_af2pred_0001_af2pre … (protein)
chain: SSSSSNAERYLVRVIFELFHRLGLSVEQAKELARLAIELLERGVSEEEAEELLQELAKELSSSSS
B5: il2ra_site2_2erj_sap_21_mot_HHH_b1_00069_af2_000000103_0001_1_18_H_._HHH_b1_05528_af2_0001_0000500009_0000001_0_0001_af2pred_0001_af2pred (protein)
chain: SSSSDEIRRLYELAEELDKLLLEGDEEKVEELLEELEQLARETNTPSAEKVVRAIEKSLESSSSS
B6: il2ra_site2_3nfp_sap_24_mot_HHH_b1_00050_000000292_0001_22_38_H_._HHH_b1_02222_af2_0001_0000900024_0000001_1_0001 (protein)
chain: SSSSDDEKLERMVELAIRTAEKRGDEEVLEELRRLLEEAREEGDFRLLLEAYALIAEALQRSSSS
B7: il2ra_site2_3nfp_sap_16_mot_HHH_b1_05400_af2_000000127_0001_43_57_H_._5fa2c1a30f04debedfe40931e4d0b367_0001_0001_0000200007_0000001_1_0001 (protein)
chain: SSSSSKAERYVEVALKVAELALRDGDPEVARRIVELAEQAARSQNNEELEEEIEELQEKINSSSS
B8: il2ra_site2_2erj_normal_mot_HHH_b2_01204_af2_000000056_0001_19_34_H_._HHH_b2_01455_af2_0001_0000300029_0000001_0 (protein)
chain: SSSDLEEELEELVEKLVEELGLSELAKRYLQRVVEALLEAGVDEEHARKALEESARQIAEGSSSS
B9: il2ra_site2_2erj_sap_26_mot_ca9fcc9ace360711d783d1260e4fbff1_0001_1_af2_000000007_0001_15_32_H_._HHH_b2_06363_0001_0000100021_0000001_0_0001 (protein)
chain: SSSSSSNDESLRVWELLREFAHAKSEEEREELEREVRELVEELNDNLLARFVELALRLHSSSSSS
B10: il2ra_site2_3nfp_sap_24_mot_HHH_b2_00444_000000178_0001_41_57_H_._HHH_b2_06761_0001_0000200019_0000001_0_0001 (protein)
chain: SSSSSSEAEEYVRAALELLKRIKDEELFERHFELIELAIESQGDEELEELLREIEEKYRSSSSSS
B11: il2ra_site2_2erj_normal_mot_HHH_b2_06545_000000262_0001_21_37_H_._HHH_b1_02645_0001_0000200009_0000001_0 (protein)
chain: SSSSSEEEVEELIKEAEQLLEEGDPEKAEEVLSRAFELAYEVNDPELASRVIELMALIAKSSSSS
B12: il2ra_site2_2erj_sap_19_mot_HHH_b2_00505_000000221_0001_1_17_H_._HHH_b1_08169_0001_0000200013_0000001_1_0001 (protein)
chain: SSSSSEWLHRSYKLANELMHLLARGDEEEFERLVEEIEKFAEERDNKVLKEIVESLHRLFNSSSS
B13: il2ra_site2_3nfp_sap_17_mot_HHH_b1_04762_000000120_0001_42_54_H_._HHH_b1_06359_0001_0000300027_0000001_0_0001 (protein)
chain: SSSSDEEELERLLEEVEELIKQGNLEEAEQLIMRIAHIAWELGDHEVFARLTELLEEIIRLSSSS
B14: il2ra_site2_2erj_sap_33_mot_d513a5c7d2e7ced7c66e00d3c8df735a_0001_000000137_0001_35_49_H_._HHH_b1_03847_af2_0001_0000300017_0000001_0_0001 (protein)
chain: SSSSSDLHELYRLAVELMHALANGDEELFEELAEEVEKLARELNSENVEEFIERLQRKLHSSSSS
B15: il2ra_site2_3nfp_sap_15_mot_HHH_b1_04032_000000208_0001_43_56_H_._HHH_b2_02140_0001_0001900057_0000001_0_0001_af2pred_0001_af2pred (protein)
chain: TEEIERVVRSVLRYIPDPEEARELLKRLRELLKRDPKEALELALELAEELGDPYLRELLERLLEK
B16: il2ra_site2_3nfp_normal_mot_HHH_b1_00660_af2_000000090_0001_40_57_H_._HHH_b2_03957_0001_0000500035_0000001_0_af2pred_0001_1_af2pred_swapped (protein)
chain: SSSSDVEEQVRELLEEAEELLRRGNPEEAEEVLRRASDLAYEARDEELVHLILELLEKVEGSSSS
B17: il2ra_site1_3nfp_sap_8_mot_9410bc1eedee1757c7b766bec531e3ee_0001_1_000000027_0001_33_48_H_._HHH_b1_02973_0001_0000500027_0000001_0_0001_af2pred_0001_af2pred (protein)
chain: SSSSSSEFSRRVDELIRLLLKARSEEEIERVFEEVRRLAEEANDPLAKRLVELAYRLARSSSSSS
B18: il2ra_site1_2b5i_normal_mot_HHH_b1_01949_af2_000000166_0001_1_19_H_._HHH_b1_03840_af2_0001_0000200016_0000001_0_af2pred_dldesign_0_af2pred (protein)
chain: SSSSTPEEDKIYELYKEALELVRQGKKEEAKKVLEEALELAKKAKDEKAVAEIEYLLEKLSSSSS

Each binder was assayed against il2ra, P01589 (assay: yeast display titration).

Apparent Kd, inactive:
B1 no binding seen
B2 no binding seen
B3 no binding seen
B4 no binding seen
B5 no binding seen
B6 no binding seen
B7 no binding seen
B8 no binding seen
B9 no binding seen
B10 no binding seen
B11 no binding seen
B12 no binding seen
B13 no binding seen
B14 no binding seen
B15 no binding seen
B16 no binding seen
B17 no binding seen
B18 no binding seen
